Measurements reported in PubChem BioAssay AID1259425 (University of Nebraska Medical Center, 2018).
Screen: 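Seek colon cancer weak points whose silencing resembles KSR1 loss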 (primary screen). System: HCT116 human colon cancer cells. Reagents: siRNA pool against human genes, 50 nM siRNA. Measured: 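mRNA of six signature genes measured together by branched-DNA assay after 50 nM siRNA pool, blank removed, divided by geometric mean of two housekeeping genes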. Reading the numbers: BNIP3L mRNA: higher = more BNIP3L transcript after knockdown; NDRG1 mRNA: higher = more NDRG1 transcript after knockdown.
The whole screen tested about 14,000 reagents; shown is a random part of them. Further read-outs or replicates are left out here. The record does not give: the time to read-out.

| target | BNIP3L mRNA, set 1 | NDRG1 mRNA, set 1 |
| --- | --- | --- |
| AFG3L1P (AFG3 like matrix AAA peptidase subunit 1, pseudogene) | 0.0731 | 0.17 |
| GANC (glucosidase alpha, neutral C) | 0.119 | 0.0664 |
| RAB26 (RAB26, member RAS oncogene family) | 0.223 | 0.332 |
| SCMH1 (Scm polycomb group protein homolog 1) | 0.119 | 0.0461 |
| PRDM16 (PR/SET domain 16) | 0.107 | 0.0726 |
| MAP7D3 (MAP7 domain containing 3) | 0.123 | 0.153 |
| TESC (tescalcin) | 0.108 | 0.708 |
| PDGFD (platelet derived growth factor D) | 0.109 | 0.29 |
| CHST10 (carbohydrate sulfotransferase 10) | 0.134 | 0.198 |
| SCGB2A2 (secretoglobin family 2A member 2) | 0.104 | 0.0744 |
| RASA4 (RAS p21 protein activator 4) | 0.138 | 0.181 |
| GTF2IRD1 (GTF2I repeat domain containing 1) | 0.127 | 0.175 |
| CTR9 (CTR9 component of Paf1/RNA polymerase II complex) | 0.148 | 0.279 |
| POLL (DNA polymerase lambda) | 0.154 | 0.0927 |
| NCOA7 (nuclear receptor coactivator 7) | 0.157 | 0.161 |
| ZC2HC1C (zinc finger C2HC-type containing 1C) | 0.145 | 0.349 |
| RPS29 (ribosomal protein S29) | 0.192 | 0.739 |
| KCNQ4 (potassium voltage-gated channel subfamily Q member 4) | 0.183 | 0.398 |
| KTN1 (kinectin 1) | 0.134 | 0.176 |
| ACTRT1 (actin related protein T1) | 0.199 | 0.588 |
| COL15A1 (collagen type XV alpha 1 chain) | 0.114 | 0.169 |
| RPS6KA5 (ribosomal protein S6 kinase A5) | 0.116 | 0.168 |
| PPIE (peptidylprolyl isomerase E) | 0.183 | 0.305 |
| TFCP2L1 (transcription factor CP2 like 1) | 0.0835 | 0.31 |
| SPATA1 (spermatogenesis associated 1) | 0.128 | 0.0923 |
| ARHGAP1 (Rho GTPase activating protein 1) | 0.0569 | 0.821 |
| KLHL2 (kelch like family member 2) | 0.0775 | 0.234 |
| TFCP2 (transcription factor CP2) | 0.0642 | 0.346 |
| PIMREG (PICALM interacting mitotic regulator) | 0.12 | 0.0996 |
| BEND5 (BEN domain containing 5) | 0.186 | 0.958 |
| MIER1 (MIER1 transcriptional regulator) | 0.145 | 0.101 |
| GZMB (granzyme B) | 0.0753 | 0.161 |
| COA3 (cytochrome c oxidase assembly factor 3) | 0.112 | 1.05 |
| PSPH (phosphoserine phosphatase) | 0.0686 | 0.203 |
| CYP4F8 (cytochrome P450 family 4 subfamily F member 8) | 0.13 | 0.142 |
| RNF8 (ring finger protein 8) | 0.0643 | 0.119 |
| CHID1 (chitinase domain containing 1) | 0.131 | 0.349 |
| IKZF5 (IKAROS family zinc finger 5) | 0.084 | 0.573 |
| ALKBH2 (alkB homolog 2, alpha-ketoglutarate dependent dioxygenase) | 0.0762 | 0.12 |
| SAMD4A (sterile alpha motif domain containing 4A) | 0.1 | 0.207 |
| GTF2A1 (general transcription factor IIA subunit 1) | 0.0747 | 0.0886 |
| ANKRD50 (ankyrin repeat domain 50) | 0.143 | 0.189 |
| GADD45G (growth arrest and DNA damage inducible gamma) | 0.114 | 0.237 |
| CFDP1 (chromatin remodeling protein CFDP1) | 0.0985 | 0.267 |
| CLDND1 (claudin domain containing 1) | 0.173 | 0.641 |
| USP47 (ubiquitin specific peptidase 47) | 0.0378 | 0.0705 |
| FOXL2 (forkhead box L2) | 0.0646 | 0.255 |
| IPO9 (importin 9) | 0.164 | 0.372 |
| ANP32CP (acidic nuclear phosphoprotein 32 family member C, pseudogene) | 0.115 | 0.0746 |
| SLC22A8 | 0.0867 | 0.2 |
| UBE2I (ubiquitin conjugating enzyme E2 I) | 0.182 | 0.477 |
| RAB33A (RAB33A, member RAS oncogene family) | 0.0975 | 0.0647 |
| PGR (progesterone receptor) | 0.0874 | 0.208 |
| SLC19A3 | 0.0763 | 0.221 |
| ITGB2 (integrin subunit beta 2) | 0.0566 | 0.179 |
| LPXN (leupaxin) | 0.0618 | 0.193 |
| SLC22A6 | 0.192 | 0.181 |
| DISC1 (DISC1 scaffold protein) | 0.0726 | 0.109 |
| PGK2 (phosphoglycerate kinase 2) | 0.0706 | 0.122 |
| SCYL1 (SCY1 like pseudokinase 1) | 0.0687 | 0.11 |
| ZNF701 (zinc finger protein 701) | 0.164 | 0.434 |
| FSD1 (fibronectin type III and SPRY domain containing 1) | 0.131 | 0.42 |
| PHF6 (PHD finger protein 6) | 0.21 | 0.0466 |

Copied from the list:
RPS29 (ribosomal protein S29), NDRG1 mRNA, set 1 → 0.739
For “BNIP3L mRNA, set 1”, TFCP2L1 (transcription factor CP2 like 1) has 0.0835
Entry for RASA4 (RAS p21 protein activator 4) under “NDRG1 mRNA, set 1”: 0.181
Result for KCNQ4 (potassium voltage-gated channel subfamily Q member 4) under “BNIP3L mRNA, set 1”: 0.183
Under “BNIP3L mRNA, set 1”, DISC1 (DISC1 scaffold protein) is entered as 0.0726
CHST10 (carbohydrate sulfotransferase 10), NDRG1 mRNA, set 1 → 0.198
